{
  "source": "patent US8013117",
  "about": "(dated 2011)",
  "assay": "general procedure: solution-phase peptide synthesis; HBTU; PyBOP/HOBT; DEPBT/HOBT",
  "key": {"[1]": {"conditions": "coupling step, calculated from HPLC analysis"}},
  "note": "Square brackets hold non-standard residues; d marks the D form. Ends that are not written are not given here. * marks the point of attachment. Mtr = COc1cc(C)c(S(=O)(=O)*)c(C)c1C; Boc = CC(C)(C)OC(=O)*",
  "data": [
    {"substance": "Pyr-His(Trt)-Trp(boc)-Ser(tBu)-Tyr(tBu)-D-Leu-Leu-Arg(Mtr)-Pro-NHEt", "values": [
      {"measurement": "step yield", "setting": "[1]", "result": 68, "unit": "%"}
    ]},
    {"substance": "Pyr-His(Trt)-Trp(boc)-Ser(tBu)-Tyr(tBu)-OAllyl", "values": [
      {"measurement": "step yield", "setting": "[1]", "result": 78, "unit": "%"}
    ]},
    {"substance": "Pyr-His-Trp-Ser-Tyr-D-Leu-Leu-Arg-Pro-NHEt", "values": [
      {"measurement": "step yield", "setting": "late stage modification step, calculated from HPLC analysis", "result": 59, "unit": "%"}
    ]},
    {"substance": "Pyr-His(Trt)-Trp(boc)-Ser(tBu)-Tyr(tBu)-OH", "values": [
      {"measurement": "step yield", "setting": "late stage modification step", "result": 94, "unit": "%"}
    ]},
    {"substance": "Boc-[dL]LR(Mtr)P-NHEt", "values": [
      {"measurement": "step yield", "setting": "coupling step, based on HPLC analysis", "result": 60, "unit": "%"}
    ]},
    {"substance": "[dL]LR(Mtr)P-NHEt", "values": [
      {"measurement": "step yield", "setting": "late stage modification step, based on HPLC", "result": 80, "unit": "%"}
    ]}
  ]
}
